These are yes or no findings as the source states them, for the method shown. In cells and extracts the contact can be indirect. Binding calls can cover weak binding; strength is not graded here. For some assays here: Sequences can lack the tags named with a protein.
Tests used:
[1] = biological target: PTK7 ΔKN (human) (UniProt Q13308); assay: co-IP; co-expression in HEK 293T cells; 1% Triton X-100 lysis buffer (50 mM Hepes, 150 mM NaCl); immunoprecipitation with anti-PTK7 antibody and protein G-agarose; Western blot (Fig. 1A, C, D)
[2] = biological target: PTK7Δ1–3 (human) (UniProt Q13308); assay: as above
[3] = biological target: PTK7Δ4–7 (human) (UniProt Q13308); assay: as above
[4] = biological target: T1, MYC-WNT5A (UniProt P41221); assay: co-IP; full and truncated PTK7 co-expressed with MYC-WNT5A in HEK 293T cells; immunoprecipitation with anti-MYC antibody; Western blot (Fig. 2C)
T1 sequence: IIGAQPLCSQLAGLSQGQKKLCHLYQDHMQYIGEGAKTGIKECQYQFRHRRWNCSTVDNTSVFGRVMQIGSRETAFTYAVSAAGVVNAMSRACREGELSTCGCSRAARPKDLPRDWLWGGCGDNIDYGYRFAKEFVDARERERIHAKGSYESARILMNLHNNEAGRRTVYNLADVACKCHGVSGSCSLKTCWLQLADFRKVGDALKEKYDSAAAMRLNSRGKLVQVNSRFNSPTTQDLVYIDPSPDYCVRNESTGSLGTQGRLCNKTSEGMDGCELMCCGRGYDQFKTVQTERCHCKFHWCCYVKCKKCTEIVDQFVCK

Amino acid sequences for entries named in this document (tags omitted). A change or cut given only in a name is not applied to a line headed by its entry. Residues count along the entry.
UniProt Q13308: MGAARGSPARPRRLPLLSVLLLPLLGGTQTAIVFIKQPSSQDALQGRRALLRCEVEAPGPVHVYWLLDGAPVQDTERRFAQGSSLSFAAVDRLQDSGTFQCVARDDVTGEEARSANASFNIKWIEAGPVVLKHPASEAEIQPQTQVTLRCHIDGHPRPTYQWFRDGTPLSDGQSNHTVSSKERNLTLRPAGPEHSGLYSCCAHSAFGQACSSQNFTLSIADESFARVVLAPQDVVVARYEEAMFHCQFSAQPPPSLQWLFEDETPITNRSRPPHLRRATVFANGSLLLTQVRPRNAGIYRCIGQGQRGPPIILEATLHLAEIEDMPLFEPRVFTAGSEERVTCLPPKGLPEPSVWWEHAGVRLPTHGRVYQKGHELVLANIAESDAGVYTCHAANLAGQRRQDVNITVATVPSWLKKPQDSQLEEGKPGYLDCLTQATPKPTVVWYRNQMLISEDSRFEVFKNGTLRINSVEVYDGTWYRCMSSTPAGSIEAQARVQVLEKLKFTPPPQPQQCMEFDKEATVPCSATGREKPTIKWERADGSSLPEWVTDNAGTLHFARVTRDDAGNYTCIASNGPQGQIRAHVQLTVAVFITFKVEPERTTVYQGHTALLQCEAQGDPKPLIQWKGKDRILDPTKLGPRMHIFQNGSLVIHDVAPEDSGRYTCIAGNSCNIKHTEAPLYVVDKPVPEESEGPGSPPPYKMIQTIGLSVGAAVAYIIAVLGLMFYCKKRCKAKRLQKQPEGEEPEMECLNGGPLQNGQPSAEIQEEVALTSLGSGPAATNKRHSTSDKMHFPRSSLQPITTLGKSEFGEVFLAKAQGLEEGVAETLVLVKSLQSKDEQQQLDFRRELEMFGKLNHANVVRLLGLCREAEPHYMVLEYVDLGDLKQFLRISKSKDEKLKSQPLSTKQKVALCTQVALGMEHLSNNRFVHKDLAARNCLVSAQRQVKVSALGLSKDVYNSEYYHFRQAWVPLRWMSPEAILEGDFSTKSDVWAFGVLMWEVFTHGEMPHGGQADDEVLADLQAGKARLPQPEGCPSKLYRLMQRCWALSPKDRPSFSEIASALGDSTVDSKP
UniProt Q01974, residues 34-943: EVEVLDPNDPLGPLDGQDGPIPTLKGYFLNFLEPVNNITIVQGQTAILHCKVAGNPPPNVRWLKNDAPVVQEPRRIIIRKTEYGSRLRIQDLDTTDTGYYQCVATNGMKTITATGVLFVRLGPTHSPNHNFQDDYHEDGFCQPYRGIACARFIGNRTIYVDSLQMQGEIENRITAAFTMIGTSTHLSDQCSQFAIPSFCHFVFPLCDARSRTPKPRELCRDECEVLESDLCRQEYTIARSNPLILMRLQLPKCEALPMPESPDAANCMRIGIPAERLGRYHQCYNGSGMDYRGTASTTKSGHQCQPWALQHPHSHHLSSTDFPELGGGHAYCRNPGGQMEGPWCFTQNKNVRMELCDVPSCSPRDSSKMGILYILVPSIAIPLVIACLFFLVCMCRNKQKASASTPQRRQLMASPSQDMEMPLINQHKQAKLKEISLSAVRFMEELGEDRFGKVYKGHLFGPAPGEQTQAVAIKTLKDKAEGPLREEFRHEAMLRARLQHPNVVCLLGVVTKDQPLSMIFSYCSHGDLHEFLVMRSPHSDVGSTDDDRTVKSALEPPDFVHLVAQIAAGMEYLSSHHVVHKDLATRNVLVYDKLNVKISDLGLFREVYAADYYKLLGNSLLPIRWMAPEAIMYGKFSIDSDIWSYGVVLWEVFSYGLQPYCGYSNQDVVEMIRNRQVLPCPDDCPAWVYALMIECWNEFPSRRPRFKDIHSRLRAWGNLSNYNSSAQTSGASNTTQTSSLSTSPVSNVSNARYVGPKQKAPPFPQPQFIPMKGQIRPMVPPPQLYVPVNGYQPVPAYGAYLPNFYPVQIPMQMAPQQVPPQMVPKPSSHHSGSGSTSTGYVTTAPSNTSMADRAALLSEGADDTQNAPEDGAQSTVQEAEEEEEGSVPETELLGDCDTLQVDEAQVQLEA

| binding [1] | binding [2] | binding [3] | binding [4] | Substance |
| --- | --- | --- | --- | --- |
| binds | binds | binds | – | FLAG-ROR2 (receptor tyrosine kinase-like orphan receptor 2) (from UniProt Q01974 34-943) |
| – | – | – | binds | PTK7Δ1–3 (from UniProt Q13308) (receptor) |
| – | – | – | binds | PTK7Δ4–7 (from UniProt Q13308) (receptor) |
